Measurements from “University of Dundee, Small-Polar-MMV Screening Library” (2021), ChEMBL document CHEMBL3988442.

By UniProt entry, the sequences of proteins in these tests, tags left out.
UniProt E9BF75, entry or part of it: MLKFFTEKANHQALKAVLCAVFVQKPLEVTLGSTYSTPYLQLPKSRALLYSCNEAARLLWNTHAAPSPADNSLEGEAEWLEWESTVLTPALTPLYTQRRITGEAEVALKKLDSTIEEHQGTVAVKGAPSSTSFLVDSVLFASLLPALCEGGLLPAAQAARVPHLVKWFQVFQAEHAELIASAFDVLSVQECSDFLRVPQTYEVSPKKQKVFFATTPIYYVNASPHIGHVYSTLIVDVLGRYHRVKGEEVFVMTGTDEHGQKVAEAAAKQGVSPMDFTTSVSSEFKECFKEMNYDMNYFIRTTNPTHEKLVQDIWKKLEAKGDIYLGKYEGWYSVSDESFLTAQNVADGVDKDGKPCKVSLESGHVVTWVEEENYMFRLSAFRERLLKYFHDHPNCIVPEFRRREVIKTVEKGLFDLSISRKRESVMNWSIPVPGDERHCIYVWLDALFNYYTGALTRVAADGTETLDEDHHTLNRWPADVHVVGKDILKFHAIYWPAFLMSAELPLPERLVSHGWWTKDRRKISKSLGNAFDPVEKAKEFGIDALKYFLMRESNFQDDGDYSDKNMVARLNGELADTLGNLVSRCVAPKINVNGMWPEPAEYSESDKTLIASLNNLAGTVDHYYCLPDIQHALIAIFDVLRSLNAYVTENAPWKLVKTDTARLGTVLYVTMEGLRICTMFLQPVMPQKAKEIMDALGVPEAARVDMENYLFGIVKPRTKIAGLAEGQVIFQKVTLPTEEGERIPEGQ

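Methionyl-tRNA synthetase (putative), Leishmania donovani (UniProt E9BF75). Primary screen of methionyl-tRNA synthetase; the read-out is not stated. The test concentration is not given. The values are filed as inhibition. Of about 68,000 compounds tested this way, about 24 (0.035%) reached 50% or more in at least one test.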

Results are percentages, as filed.
How 0% and 100% were set is not recorded. Most values in the screen are low, and negative values occur.
This is an unselected part of the compounds tested.

SMILES,inhibition
COCc1cccc(NC(C)C(=O)N(C)Cc2ccccc2)c1 (stereo not shown),7.807
COCCN1CCN(Cc2cnc(C(C)C)nc2)CC1,9.646
CC(C)c1nc2c(n1C)CCN(CCCOc1ccc(C#N)cc1)C2,16.27
O=C(NC1CC1)c1cnc(-c2noc3cc(N4CCCCC4)ccc23)s1,22.46
CN(C(=O)NCC1(CN2CCOCC2)CCCCC1)C1CC1,6.266
CCC(CNC(=O)N1CCOCC2(CCOCC2)C1)c1ccccc1 (stereo not shown),7.337
Cc1ncc2c(n1)CN(Cc1nc(-c3cccs3)no1)CC2,8.333
CCc1nc(CN2CCCC(NCc3cnc(C)s3)C2)no1 (stereo not shown),15.08
CCC1c2ccc(C)n2CCN1C(=O)Cn1cnc2sc(C)cc2c1=O (stereo not shown),20.94
Cc1nn(C)c2nc(N(Cc3ccccn3)CC3CCCO3)sc12 (stereo not shown),12.24
O=C(NC1CC2(CCN(CCO)CC2)Oc2ccccc21)c1csnn1 (stereo not shown),12.32
COCC(=O)N1CCCC1c1cccc(C)c1C (stereo not shown),1.736
Cc1cc(C(=O)N2CCc3c(CN(C)C)nn(C)c3C2)[nH]n1,15.06
Cn1cc(C(=O)N[C@@H]2CN(Cc3ccc(F)cc3)[C@@H]3CCCO[C@@H]32)cn1,16.3
CCN1CCN(C(=O)c2cc(-c3cccn3C)n[nH]2)[C@H]2CS(=O)(=O)C[C@H]21,17.46
O=C1CC2(CNCCN(C(=O)Nc3ccccc3)C2)CN1 (stereo not shown),11.11
CS(=O)(=O)NCC1OCCc2cn(CC3CC3)nc21 (stereo not shown),10.95
CC(C)(C)c1cn2nc(N3CCCC3Cn3cncn3)sc2n1 (stereo not shown),11.66
OC1CCN(Cc2ccc(CNc3ncc(Cl)cc3F)cc2)CC1,25.27
CC(=O)N1CC[C@H]2OCC[C@@H](C(=O)Nc3cccnc3C)[C@@H]2C1,15.93
O=C(c1cn(Cc2ccccc2)c2ncccc12)N1CCCCC1,13.06
O=C(NCCn1ccnc1)N1CCN(Cc2ccsc2)CC1,7.955
CNC(=O)[C@@]12CCC3(CCN(S(=O)(=O)C4CC4)CC3)[C@@H]1CN(C(C)=O)C2,6.091
Cc1nnc(Nc2cccc(C3CCCN(Cc4ncc[nH]4)C3)n2)s1 (stereo not shown),12.26
CC(C)Cn1cc(NC(=O)N2CCOC(c3ccccc3)C2)cn1 (stereo not shown),7.971
CCS(=O)(=O)N1CCC[C@]2(C(=O)N(C)C)CN(c3ncccn3)C[C@@H]2C1,17.99
NC(=O)N1CCCC(C(=O)NCCOc2ccc(F)c(F)c2)C1 (stereo not shown),9.946
CCCc1nc(CN2CCCC(Cn3cncn3)C2)no1 (stereo not shown),18.75
OCC(CO)N1CCCC(Cc2cnc(Nc3ccccn3)cn2)C1 (stereo not shown),17.08
CCOc1ccccc1CCNC(=O)NCC(O)c1ccsc1 (stereo not shown),8.078
Cc1ccc(C(N)c2cccc(S(C)(=O)=O)c2)c(C)c1 (stereo not shown),7.831
Cn1cc(C2NC3(CCCC3)C(=O)N2CC2CC2)c(=O)n(C)c1=O (stereo not shown),3.495
c1ccc(CCNc2ncnc3c2CCN(Cc2c[nH]cn2)CC3)cc1,10
CCc1ccc(C(=O)N2CCN(CC(C)O)CC2)o1 (stereo not shown),9.184
CCC(C)Sc1nncn1-c1ccc(OC)nc1 (stereo not shown),-2.653
CC1CCN(c2ccc(=O)n(CC(=O)N(C)Cc3ccccc3)n2)CC1,6.178
COc1cccc(CNCC2CN(C)CCO2)c1 (stereo not shown),21.11
CNS(=O)(=O)CC(=O)NC(C)Cc1ccc(-c2ccccc2)cc1 (stereo not shown),6.211
COCc1ccc(C(=O)N2CCCN(c3ccc(F)cc3)CC2)s1,14.29
Cc1nn(C)c(C)c1NC(=O)CNc1cccc(CC(F)(F)F)c1,17.87
Cn1ccc2cc(C(=O)N3CC[C@@]4(O)CCCC[C@H]4C3)ccc21,5.758
COCc1ccc(C(=O)N2CCC(c3cc4ncc(C)nc4[nH]3)C2)cc1 (stereo not shown),18.71
O=S(=O)(c1ccccc1)N1CCCC(Cn2cncn2)C1 (stereo not shown),18.66
CCc1nnsc1C(=O)N1CCCC(COc2ccc(F)cc2)C1 (stereo not shown),8.591
CCOC(C)c1nc(CN2CCN(c3nccc(C)n3)CC2)cs1 (stereo not shown),10.51
Cc1nn(C)c(C)c1C1CCCN1C(=O)CCNc1ncccn1 (stereo not shown),12.6
COCCN1C(=O)CC[C@@H]2[C@H]1CCN2S(=O)(=O)c1cccs1,4.156
Cc1csc2nc3n(c(=O)c12)CCN(C(=O)c1ccncc1)CC3,11.3
COc1ccc(CCN(C)C(C(=O)O)c2ccc(F)c(C)c2)cc1OC (stereo not shown),6.875
CN1CCCC(CCC(=O)NCCc2nnc(N)s2)C1 (stereo not shown),15.54
Cn1cc(C(=O)NC2CCN(C(=O)NCCSC(F)(F)F)CC2)cn1,18.75
Cc1nc(C2CCCN(C(=O)c3cc(C(C)(C)C)on3)C2)no1 (stereo not shown),4.819
CCCC(O)CN1CC(C)(C)CN(C(=O)c2ccc(SC)cc2)CC1=O (stereo not shown),7.838
Cn1nc(-c2ccccc2)c(Cl)c1C(=O)O,13.64
COc1c(C2CCCN2C(=O)c2cccc(C(N)=O)c2)c(C)nn1C (stereo not shown),6.25
CCOC(=O)c1coc(N2CCC(C(C)N3CCCC3)CC2)n1 (stereo not shown),18.53
O=C(NCC(F)(F)F)c1ccc(-c2ccco2)[nH]c1=O,15.03
Cc1ccc(-c2nc3cc(S(=O)(=O)N4CCCC4)ccc3n2C)o1,10.95
COc1ccccc1-c1cc(NC(=O)CCS(=O)(=O)C2CCCC2)[nH]n1,8.741
Cc1cnn(CC2CCN(CC(O)c3ccccc3)CC2)c1 (stereo not shown),3.621
Cc1cnc(N2CCOC3(CCCN(C)C3)C2)nc1 (stereo not shown),8.014
Cc1cc(C2CCC2)nc(N(C)Cc2ncccc2C)n1,0.7634
CCCN1CCCC2(CCN(Cc3cncn3C3CCCCC3)C2)C1=O (stereo not shown),11.06
Cn1cc(CN2CCC3(CCCN(C(=O)c4cscn4)C3)C2)cn1 (stereo not shown),14.38
CCOCC(O)CN1CCN(C(=O)c2ccc(C)nc2)CC1 (stereo not shown),20.77
CCCOC1CCCN(C(=O)c2ccc(S(N)(=O)=O)cc2)C1 (stereo not shown),8.696
CCCc1cc(C(=O)N2CCC3(CC2)CN(CCN(C)C)C(=O)O3)no1,7.229
C[S+]([O-])CCNC(=O)N1CCSC(C)(C)C1 (stereo not shown),15.52
CN(Cc1cccnc1)CC1CNCc2nccn2C1 (stereo not shown),14.29
CC(C)N1CCOC(c2cc(CCO)[nH]n2)C1 (stereo not shown),8.385
OC(COCc1cccs1)CN1CCc2c(ncn2C2CC2)C1 (stereo not shown),16.47
CNS(=O)(=O)c1ccc(CNC(=O)NCC2CCOC2)cc1 (stereo not shown),13.19
O=C1COc2ccc(C(=O)N3CCCC(n4ccnc4)C3)cc2N1 (stereo not shown),18.1
CN1CCC2(CCN(CC3CCOCC3)CC2)C1=O,11.42
Cn1ncc(N2CCC(CNC(=O)[C@@H](N)c3ccccc3)CC2)cc1=O,12.06
CN(C)CCN(Cc1ccsc1)C(=O)C1=NNC(=O)CC1,11.73
CC(C)(C)Oc1ccccc1CNC(=O)C1CCCOC1 (stereo not shown),18.77
CSc1ccc(CN(CCO)C(=O)CCNC(C)=O)cc1,5.621
O=c1c(NCc2ccncc2)c(NCC(O)CN2CCOCC2)c1=O (stereo not shown),16.67
CC(=O)NCCNc1nc(-c2ccccn2)nc2c1c(C)nn2C,5.85
CSCC(C)(O)CNS(=O)(=O)c1cccc(C)c1 (stereo not shown),13.28

Some entries from above, unchanged:

SMILES	inhibition
CNS(=O)(=O)CC(=O)NC(C)Cc1ccc(-c2ccccc2)cc1 (stereo not shown)	6.211
CC(=O)NCCNc1nc(-c2ccccn2)nc2c1c(C)nn2C	5.85
CCC(CNC(=O)N1CCOCC2(CCOCC2)C1)c1ccccc1 (stereo not shown)	7.337
Cc1cc(C2CCC2)nc(N(C)Cc2ncccc2C)n1	0.7634
O=C(NCCn1ccnc1)N1CCN(Cc2ccsc2)CC1	7.955